Source: patent US7029846B2 (University of Medicine and Dentistry of New Jersey, priority 2000, dated 2006)

Assay: general procedure: Fmoc solid-phase peptide synthesis; standard FastMoc protocols
Conditions: conjugation step

Acetyl-Tyr-Tat peptide-fluorescein conjugate
conjugation yield: ˜80%
